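Whole-cell assay for inhibitors of Mycobacterium tuberculosis growth, labelled Cornell in the record; the read-out is not stated. The concentration is filed as 10 mM, unlikely as a test dose, so the dose is not known. Higher means stronger inhibition (inferred from two other growth screens of the library). Of about 53,000 compounds tested this way, about 900 (1.7%) reached 50% or more in at least one test.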

The filed quantity is “Percent Effect” (%). How 0% and 100% were set is not recorded. Most values in the screen are low, and negative values occur. The compounds are a random part of those screened.

structure | Percent Effect
CCOc1cc(CN(C)Cc2ccccc2)ccc1OC(F)F | 12.73%
COCCNC(=O)Nc1ccc(F)c(C(N)=O)c1 | -7.025%
Cc1c(C(=O)NS(=O)(=O)c2ccc(F)cc2)cnn1CC(C)C | -20.46%
O=C(c1cnc2ccccn12)N1CCCC(c2ccn[nH]2)C1 (stereo unspecified) | 1.484%
Cc1ccc(C(=O)CN2C(=O)c3ccccc3CS2(=O)=O)c(C)c1 | 15.46%
O=C(O)C(F)(F)F.O=C(O)C(F)(F)F.[H][C@@]12CN(CCOC)C[C@]1([H])[C@@H](OC)CCN2Cc1ccc(C)o1 | -13.5%
[H][C@]12CCC(=O)N(c3cccnc3)[C@@]1([H])CCN2C(=O)c1cnccn1 | -2.594%
CNc1cc(N2CCCC2CNCc2cccnc2C)ncn1 (stereo unspecified) | -3.088%
Cl.Cl.c1cn(-c2cnc(C3CCNCC3)cn2)cn1 | -9.344%
COc1ccc2c(c1)OCC(CNC(=O)c1ccncc1)C2 (stereo unspecified) | 8.381%
Cc1nc(C(C)(C)C)sc1C(=O)NCCn1cccn1 | 29.01%
COCCc1noc(CNC2CCCN(c3cccnn3)C2)n1 (stereo unspecified) | -12.33%
O=C(O)C(F)(F)F.O=C(O)C(F)(F)F.O=C(O)C(F)(F)F.[H][C@@]12CN(Cc3cccnc3)CCO[C@]1([H])CN(Cc1ccccc1F)C2 | 12.54%
CCC(O)CN1CCN(C(=O)c2ccn(-c3cccc(F)c3)n2)CC1 (stereo unspecified) | 14.33%
CCc1cc(=O)[nH]c2nnc(SCC(=O)N3CCC(C)CC3)n12 | 6.003%
C[C@@H]1CN(C2CCOC2)C[C@]12CCN(c1cccnc1)C2=O.O=C(O)C(F)(F)F.O=C(O)C(F)(F)F (stereo partly specified) | -38.3%
Nc1nnc(SCC(=O)c2cc3c(cc2Cl)NC(=O)C3)s1 | 9.185%
O=C(O)C(F)(F)F.[H][C@@]12CCN(Cc3cccc(C#N)c3)[C@@]1([H])CC(=O)N2C | -2.25%
Cc1cnn(CC2CN(CC(=O)NCc3ccc(C)s3)CCO2)c1 (stereo unspecified) | -3.397%
CN1CCN([C@H]2CCN(C(=O)c3cc(Cl)cn3C)C[C@H]2CCCO)CC1 | -47.58%
CC(C)c1cc(=O)[nH]c(-c2ccccc2CN2CCCC2C)n1 (stereo unspecified) | 2.32%
COc1ccc(C[C@H]2CN(c3cc(OC)ncn3)CC[C@H]2OC)cc1.O=C(O)C(F)(F)F | -1.059%
COc1ccc(CN(C)[C@@H]2COC[C@H]2c2ccc(F)cc2)cc1.O=C(O)CC(O)(CC(=O)O)C(=O)O | 45.69%
Cc1ccc(C(=O)N2CCC[C@@H]2Cn2nnc3c(O)nc(C)nc32)cc1 | -60.76%
COc1ccccc1C1(CNc2cc(C(=O)N(C)C)ccn2)CC1 | -9.435%
O=C(NCCSC1CCCC1)c1cc(Cl)ccn1 | 32.08%
Cc1cnc2n(c1=O)CC(C(=O)NC1CC1)CS2 (stereo unspecified) | 9.206%
Cc1cccc(=O)n1CCC(=O)N1CC[C@](C)(O)[C@H](C)C1 | -60.65%
CCCn1ccnc1CN1CC[C@@H](NC(=O)c2cccnc2)[C@H](O)C1 | 2.213%
O=c1[nH]c2nc(N3CCSCC3)ncc2c(=O)n1-c1cccc(F)c1 | 12.37%
NC(=O)CNC(c1ccccc1)c1ccc(OC(F)F)cc1 (stereo unspecified) | 0.04022%
Cc1cn2c(=O)c(-c3ccnc(N4CCC[C@@H]4CO)n3)cnc2s1 | -20.24%
CCC[C@@H]1CN(Cc2cnc(-c3cccs3)nc2)C[C@H]1C(=O)O | 16.25%
O=C(CCc1ccccn1)N1CCCC(N2CCNC2=O)C1 (stereo unspecified) | -14.27%
CC(O)CNc1ccc(C#N)cc1C(F)(F)F (stereo unspecified) | 19.97%
CC(C)NC(=O)N1CCN(C(=O)NC(C)C)CC2(CNC(=O)C2)C1 | 15.74%
O=S(=O)(C1CC1)N1CCOCC2(CN(c3ncccn3)CCO2)C1 (stereo unspecified) | -6.268%
COCCCn1ccc(NC2CCSCC2)n1 | -4.536%
CCc1noc(CN(CCC2CCCCC2)CC(N)=O)n1 | 4.193%
COc1cccc(CN(C)Cc2nc3c(cnn3C)c(=O)[nH]2)c1OC | 17.91%
CCC(CO)N(Cc1ccccn1)C(=O)c1ccc2c(c1)CCO2 (stereo unspecified) | -2.987%
O=C(O)C(F)(F)F.[H][C@@]12CCN(C(=O)NC)CC[C@]1(C(=O)N1CCOCC1)CCN2C | -8.22%
CC(C)c1cc(NC(=O)c2ccc(C(=O)NC(C)(C)C)cc2)[nH]n1 | 22.27%
Cc1cnc(-c2nc(C3CCN(Cc4ccccc4C)CC3)no2)cn1 | 15.24%
Fc1ccc(CCN2CCC(c3nnc(-c4cccnc4)o3)CC2)cc1 | 21.35%
COc1ccc2c(c1)CCCN(C(C)C(=O)NC(C)C)C2 (stereo unspecified) | 19.39%
CNc1nc(C2CCCN(C(=O)C(C)C)C2)nc2c1CN(C)CC2 (stereo unspecified) | -13.78%
CCOc1ccccc1CCC(=O)Nc1c(C)nn(C)c1C | -20.08%
Cn1cc(N2CC3(CCN(CC4CC4)C3)CC2=O)cn1.O=C(O)C(F)(F)F (stereo unspecified) | 16.95%
NC(=O)C1CCN(C(=O)NCc2ccc(-c3ccn[nH]3)cc2)CC1 | -27.61%
O=C(Nc1ccccc1)C1CN(C(=O)c2cccs2)CC12CCOCC2 (stereo unspecified) | 7.054%
Cc1noc(C)c1-c1ccnc(C2CCNCC2)c1 | -7.826%
COC(=O)c1cccn1C1CCN(C(=O)c2ccc(C)[nH]c2=O)CC1 | -31.25%
CC(=O)N1CCCc2cc(Nc3nccn(C)c3=O)ccc21 | -15.16%
CNC(=O)CCc1cc(C2CCCCN2C(C)C)nc(C)n1 (stereo unspecified) | -4.179%
CN1C(=O)CC2(CCN(S(=O)(=O)C3CC3)CC2)c2ccccc21 | 1.741%
O=C(O)C(F)(F)F.O=C(O)C(F)(F)F.[H][C@@]12COC[C@]1(CN(C)C)CN(Cc1cc(C)on1)C2 | 3.474%
CN1CCCN(C(=O)c2cnsn2)c2cc(F)ccc21 | -5.217%
Cn1cc(CN2C[C@@H](F)[C@@H](OCc3nc4cnccc4[nH]3)C2)cn1 | -3.771%
CN(c1ccccc1)c1ccc(CC2CCCN(CCO)C2)nn1 (stereo unspecified) | -7.658%
COc1cccc(CN2CC[C@H](c3nnc(C)o3)C2)c1 | -17.09%
CCOc1cccc(C2CC(=O)NCc3nc(N4CCCC4)sc32)c1 (stereo unspecified) | -20.96%
COc1ccc(-c2cc(C3(O)CCOC(C)(C)C3)on2)cc1 (stereo unspecified) | 33.88%
CN(CC(=O)NCC(O)c1cccc(F)c1)C(=O)OC(C)(C)C (stereo unspecified) | -11.57%
CN(C)CCn1ccc2cc(NC(=O)NCc3ccon3)ccc21 | 13.82%
COCCN(Cc1ccc(F)cc1Cl)C(=O)c1c(C)noc1C | -0.3798%
CC(C)c1nnc(NC(=O)C2CSCN2C(=O)C2CCC2)s1 (stereo unspecified) | -48.55%
Cc1c(C(=O)N2CCCC2c2cnn(C)c2)cnn1-c1ccccc1 (stereo unspecified) | -31.67%
COc1ccc(S(=O)(=O)N2CCOC(C)(C(N)=O)C2)cc1 (stereo unspecified) | 55.81%
Cn1cnc(NC(=O)C2CC(=O)N(c3cccc(F)c3)C2)n1 (stereo unspecified) | -21.67%
O=C([C@@H]1CCCO1)N1CCN(Cc2ccncc2)c2ncccc2C1 | -10.31%
CC(C(=O)NC1CC1)n1nc(-c2cccs2)cc(N)c1=O (stereo unspecified) | 3.046%
CC(O)C(=O)N1CCN(c2ccccc2Cl)C(=O)C1 (stereo unspecified) | 13.47%

Some entries from above, unchanged:

structure	Percent Effect
CCc1noc(CN(CCC2CCCCC2)CC(N)=O)n1	4.193%
CNc1cc(N2CCCC2CNCc2cccnc2C)ncn1 (stereo unspecified)	-3.088%
O=C(c1cnc2ccccn12)N1CCCC(c2ccn[nH]2)C1 (stereo unspecified)	1.484%
Cc1cnn(CC2CN(CC(=O)NCc3ccc(C)s3)CCO2)c1 (stereo unspecified)	-3.397%

Source: ChEMBL document CHEMBL3988442, “University of Dundee, Small-Polar-MMV Screening Library” (2021).